The record followed here is publication PMC5859251.

Results are given in words; binding and its absence hold for the method and conditions named. In cells and extracts the contact can be indirect. Some results given as binding are weak or reduced against the parent protein; the word gives no strength. Tags and fused reporters may be left off the sequences shown.

Sequences and labels used below:
B1: STING 1-160 (domain or fragment, UniProt Q3TBT3 1-160)
chain: MPYSNLHPAIPRPRGHRSKYVALIFLVASLMILWVAKDPPNHTLKYLALHLASHELGLLLKNLCCLAEELCHVQSRYQGSYWKAVRACLGCPIHCMAMILLSSYFYFLQNTADIYLSWMFGLLVLYKSLSMLLGLQSLTPAEVSAVCEEKKLNVAHGLAW
B2: STING 241-C (domain or fragment, UniProt Q3TBT3 241-378)
chain: NSVYEILENGQPAGVCILEYATPLQTLFAMSQDAKAGFSREDRLEQAKLFCRTLEEILEDVPESRNNCRLIVYQEPTDGNSFSLSQEVLRHIRQEEKEEVTMNAPMTSVAPPPSVLSQEPRLLISGMDQPLPLRTDLI
B3: STING 161-C (domain or fragment, UniProt Q3TBT3 161-378)
chain: SYYIGYLRLILPGLQARIRMFNQLHNNMLSGAGSRRLYILFPLDCGVPDNLSVVDPNIRFRDMLPQQNIDRAGIKNRVYSNSVYEILENGQPAGVCILEYATPLQTLFAMSQDAKAGFSREDRLEQAKLFCRTLEEILEDVPESRNNCRLIVYQEPTDGNSFSLSQEVLRHIRQEEKEEVTMNAPMTSVAPPPSVLSQEPRLLISGMDQPLPLRTDLI
B4: STING 211-C (domain or fragment, UniProt Q3TBT3 211-378)
chain: LSVVDPNIRFRDMLPQQNIDRAGIKNRVYSNSVYEILENGQPAGVCILEYATPLQTLFAMSQDAKAGFSREDRLEQAKLFCRTLEEILEDVPESRNNCRLIVYQEPTDGNSFSLSQEVLRHIRQEEKEEVTMNAPMTSVAPPPSVLSQEPRLLISGMDQPLPLRTDLI

For the experiment, the target named is T1, Myc-Flag-tagged TRIM29, full length (UniProt Q8R2Q0).
T1 sequence: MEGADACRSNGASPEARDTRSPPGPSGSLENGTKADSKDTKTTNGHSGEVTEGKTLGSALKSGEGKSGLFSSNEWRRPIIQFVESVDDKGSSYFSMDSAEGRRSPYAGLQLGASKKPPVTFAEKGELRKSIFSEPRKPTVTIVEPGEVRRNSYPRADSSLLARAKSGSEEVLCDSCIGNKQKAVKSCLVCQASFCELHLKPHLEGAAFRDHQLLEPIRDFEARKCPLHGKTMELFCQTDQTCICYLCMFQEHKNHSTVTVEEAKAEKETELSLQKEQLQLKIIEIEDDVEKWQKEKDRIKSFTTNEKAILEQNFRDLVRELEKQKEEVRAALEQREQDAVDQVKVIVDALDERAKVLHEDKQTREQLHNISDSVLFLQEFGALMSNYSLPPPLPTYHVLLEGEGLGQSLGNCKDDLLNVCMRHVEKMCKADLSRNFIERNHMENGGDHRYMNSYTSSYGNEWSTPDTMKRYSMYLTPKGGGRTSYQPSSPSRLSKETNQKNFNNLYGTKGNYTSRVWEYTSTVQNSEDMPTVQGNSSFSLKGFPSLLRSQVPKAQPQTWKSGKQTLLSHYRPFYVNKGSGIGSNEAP
Description: co-IP; TRIM29 and STING (full length or truncated) co-expressed in HEK 293T cells; IP and IB with indicated antibodies.
Take B1: the binding entry is reported as “no binding”.

As to B2, the binding entry was “no binding”.

B3: the binding entry is “binds”.

As for B4, the binding entry is reported as “binds”.
